These are yes or no findings as the source states them, for the method shown.
Assays:
[1] = molecular target: CI∆78, truncated CI repressor from bacteriophage TP901-1 (first 102 residues of CI) (bacteriophage TP901-1) (UniProt O48503); assay: SEC; HiLoad 26/60 Superdex 75; native molecular weight estimated by comparison with globular protein standards; both purified
[2] = molecular target: CI-NTD, N-terminal helix-turn-helix DNA-binding domain of CI repressor from bacteriophage TP901-1 (74 residues of CI) (bacteriophage TP901-1) (UniProt O48503); assay: native MS; CI-NTD 2.2 μM with OL dsDNA 1.3 μM in 250 mM ammonium acetate, pH 6.8; both purified

Row | Binder | binding [1] | binding [2]
1 | CI∆78, truncated CI repressor from bacteriophage TP901-1 (first 102 residues of CI) (domain or fragment, UniProt O48503 1-102) MKTDTSNRLKQIMAERNLKQVDILNLSIPFQKKFGIKLSKSTLSQYVNSVQSPDQNRIYLLAKTLGVSEAWLMGFDVPMVESSKIENDSENIEETITVMKKL | no binding | –
2 | CI-NTD, N-terminal helix-turn-helix DNA-binding domain of CI repressor from bacteriophage TP901-1 (74 residues of CI) (domain or fragment, UniProt O48503 1-74) MKTDTSNRLKQIMAERNLKQVDILNLSIPFQKKFGIKLSKSTLSQYVNSVQSPDQNRIYLLAKTLGVSEAWLMG | – | no binding (tested: 2.2 μM)

From publication PMC4941734, “Structural and dynamics studies of a truncated variant of CI repressor from bacteriophage TP901-1” (Scientific Reports, 2016)
